Taken from: PubChem BioAssay AID1259425 (University of Nebraska Medical Center, 2018)

Screen: 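Find knockdowns that reproduce the gene expression pattern seen when KSR1 is lost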 (primary screen)
Cells: HCT116 human colon cancer cells
Reagent: siRNA pool against human genes, 50 nM siRNA
Detection: 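After 50 nM siRNA pool, branched-DNA assay measures six marker transcripts per well, minus blank, normalised to the geometric mean of two housekeeping transcripts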
Scale: BNIP3L mRNA: higher = more BNIP3L transcript after knockdown; NDRG1 mRNA: higher = more NDRG1 transcript after knockdown; BNIP3 mRNA: higher = more BNIP3 transcript after knockdown; ALDOC mRNA: higher = more ALDOC transcript after knockdown; ACSL5 mRNA: higher = more ACSL5 transcript after knockdown
This is a random part of about 14,000 reagents tested. Reagent sequences are not shown. Not given: the time to read-out.

no.	gene	BNIP3L mRNA, set 1	NDRG1 mRNA, set 1	BNIP3 mRNA, set 1	ALDOC mRNA, set 1	ACSL5 mRNA, set 1
1	CFC1 (cryptic, EGF-CFC family member 1)	0.0568	0.0463	0.243	0.0156	0.0614
2	HTR3C (5-hydroxytryptamine receptor 3C)	0.0689	0.15	0.216	0.0163	0.177
3	NANP (N-acetylneuraminic acid phosphatase)	0.115	0.224	0.23	0.0167	0.29
4	AIG1 (androgen induced 1)	0.0447	0.226	0.283	0.0367	0.129
5	SPC25 (SPC25 component of NDC80 kinetochore complex)	0.0923	0.233	0.379	0.0486	0.116
6	NEK11 (NIMA related kinase 11)	0.0602	0.138	0.26	0.026	0.294
7	DUOX1 (dual oxidase 1)	1.37	4.47	3.17	0.221	0.236
8	CDC42EP3 (CDC42 effector protein 3)	0.144	0.247	0.35	0.0247	0.293
9	IL11 (interleukin 11)	0.119	0.232	0.282	0.0207	0.211
10	PEX16 (peroxisomal biogenesis factor 16)	0.124	0.147	0.289	0.0591	0.179
11	SPOP (speckle type BTB/POZ protein)	0.165	0.77	0.285	0.0646	0.321
12	RHBG (Rh family B glycoprotein)	0.289	0.84	0.262	0.0407	0.418
13	RTF2 (replication termination factor 2)	0.048	0.169	0.255	0.0202	0.131
14	FKBP9 (FKBP prolyl isomerase 9)	0.103	0.13	0.27	0.0133	0.104
15	IL17RA (interleukin 17 receptor A)	0.215	0.219	0.251	0.0621	0.127
16	CDCA8 (cell division cycle associated 8)	0.1	0.355	0.278	0.00979	0.142
17	RASL10A (RAS like family 10 member A)	0.12	0.417	0.296	0.0157	0.161
18	HSPB8 (heat shock protein family B (small) member 8)	0.107	0.0561	0.368	0.00754	0.28
19	TFPT (TCF3 fusion partner)	0.0729	0.268	0.266	0.0567	0.18
20	KBTBD4 (kelch repeat and BTB domain containing 4)	0.198	0.555	0.293	0.0818	0.325
21	FASTKD3 (FASTK mitochondrial RNA regulator 3)	0.048	0.15	0.28	0.0143	0.203
22	PPTC7 (protein phosphatase targeting COQ7)	0.092	0.444	0.263	0.0372	0.298
23	CLCA1 (chloride channel accessory 1)	0.126	0.142	0.297	0.0337	0.179
24	TMEM97 (transmembrane protein 97)	0.0924	0.298	0.313	0.031	0.193
25	HSP90B1 (heat shock protein 90 beta family member 1)	0.0843	0.179	0.411	0.01	0.213
26	IMP3 (IMP U3 small nucleolar ribonucleoprotein 3)	0.213	0.224	0.367	0.0599	0.247
27	SLK (STE20 like kinase)	0.153	0.315	0.304	0.00687	0.178
28	MYO18B (myosin XVIIIB)	0.17	0.384	0.38	0.0606	0.288
29	CAND2 (cullin associated and neddylation dissociated 2 (putative))	0.0919	0.162	0.113	0.0169	0.245
30	LHFPL6 (LHFPL tetraspan subfamily member 6)	0.0977	0.07	0.423	0.0171	0.558
31	CDC34 (cell division cycle 34, ubiquitin conjugating enzyme)	0.0637	0.0827	0.136	0.0327	0.143
32	FKBP4 (FKBP prolyl isomerase 4)	0.123	0.151	0.22	0.045	0.281
33	PAPSS1 (3'-phosphoadenosine 5'-phosphosulfate synthase 1)	0.0893	0.408	0.306	0.0167	0.169
34	ASPA (aspartoacylase)	0.131	0.115	0.295	0.0111	0.186
35	RECK (reversion inducing cysteine rich protein with kazal motifs)	0.0263	0.487	0.184	0.0325	0.151
36	ATP6V1G2 (ATPase H+ transporting V1 subunit G2)	0.119	0.158	0.239	0.00826	0.0658
37	VAMP1 (vesicle associated membrane protein 1)	0.228	0.107	0.865	0.228	0.2
38	NNT (nicotinamide nucleotide transhydrogenase)	0.0497	0.489	0.223	0.036	0.117
39	CTNNB1 (catenin beta 1)	0.0498	0.231	0.261	0.0301	0.183
40	CASTOR3P (CASTOR family member 3, pseudogene)	0.102	0.123	0.346	0.03	0.0655
41	S100A10 (S100 calcium binding protein A10)	0.061	0.311	0.299	0.0281	0.126
42	CD180 (CD180 molecule)	0.0683	0.144	0.261	0.0348	0.149
43	TARDBP (TAR DNA binding protein)	0.0789	0.14	0.327	0.00696	0.153
44	PCTP (phosphatidylcholine transfer protein)	0.146	0.559	0.406	0.0346	0.101
45	IKZF4 (IKAROS family zinc finger 4)	0.117	0.15	0.352	0.0238	0.161
46	PCDHGB3 (protocadherin gamma subfamily B, 3)	0.15	0.301	0.507	0.0481	0.134
47	TMIGD3 (transmembrane and immunoglobulin domain containing 3)	0.168	0.173	0.205	0.0412	0.0755
48	CER1 (cerberus 1, DAN family BMP antagonist)	0.109	0.132	0.295	0.0225	0.089
49	RPAP2 (RNA polymerase II associated protein 2)	0.168	0.985	0.515	0.133	0.54
50	PDK1 (pyruvate dehydrogenase kinase 1)	0.114	0.0358	0.26	0.00467	0.157

A portion from the list above, for reference:
no.	gene	BNIP3L mRNA, set 1	NDRG1 mRNA, set 1	BNIP3 mRNA, set 1	ALDOC mRNA, set 1	ACSL5 mRNA, set 1
31	CDC34 (cell division cycle 34, ubiquitin conjugating enzyme)	0.0637	0.0827	0.136	0.0327	0.143
32	FKBP4 (FKBP prolyl isomerase 4)	0.123	0.151	0.22	0.045	0.281
33	PAPSS1 (3'-phosphoadenosine 5'-phosphosulfate synthase 1)	0.0893	0.408	0.306	0.0167	0.169
34	ASPA (aspartoacylase)	0.131	0.115	0.295	0.0111	0.186
35	RECK (reversion inducing cysteine rich protein with kazal motifs)	0.0263	0.487	0.184	0.0325	0.151
36	ATP6V1G2 (ATPase H+ transporting V1 subunit G2)	0.119	0.158	0.239	0.00826	0.0658
37	VAMP1 (vesicle associated membrane protein 1)	0.228	0.107	0.865	0.228	0.2
